According to publication PMC10461100, “Transcuticular calcium imaging as a tool for the functional study of insect odorant receptors” (Frontiers in Molecular Neuroscience, 2023):

System: T1, SlitOR29
T1 construct: full-length UAS transgene in Drosophila melanogaster ab3A basiconic neurons in place of DmelOR22a/b; endogenous Drosophila Orco; GCaMP6s reporter co-expressed; with Odorant receptor coreceptor (endogenous, Drosophila melanogaster)
Experiment: transcuticular calcium imaging (GCaMP6s), single dose
Set-up: species or system Spodoptera littoralis
Settings: volatile stimulus, 100 μg on filter paper (in mineral oil), in vivo fly antenna, 1 s puff

Compound	response amplitude (ΔF/F0) at 100 μg on filter paper	response amplitude (ΔF/F0) at 100 μg on filter paper (receptor-free control line also gives a small significant signal)
C=CC(=C)CCC=C(C)C [β-myrcene]	38.46 ± 6.16%	–
CC(C)=CCC/C(C)=C/CO [geraniol]	28.70 ± 4.55%	–
CC(=O)CCC=C(C)C [sulcatone]	–	21.55 ± 3.28%
